Results taken from patent publication US20250144094A1 (Erasca, Inc., priority 2021, published 2025).
The structures given here were assigned with low confidence; some may be wrong.

By UniProt entry, the sequences of proteins in these tests, tags left out. Residues count along the entry.
UniProt O75385, 1-649 limits assumed: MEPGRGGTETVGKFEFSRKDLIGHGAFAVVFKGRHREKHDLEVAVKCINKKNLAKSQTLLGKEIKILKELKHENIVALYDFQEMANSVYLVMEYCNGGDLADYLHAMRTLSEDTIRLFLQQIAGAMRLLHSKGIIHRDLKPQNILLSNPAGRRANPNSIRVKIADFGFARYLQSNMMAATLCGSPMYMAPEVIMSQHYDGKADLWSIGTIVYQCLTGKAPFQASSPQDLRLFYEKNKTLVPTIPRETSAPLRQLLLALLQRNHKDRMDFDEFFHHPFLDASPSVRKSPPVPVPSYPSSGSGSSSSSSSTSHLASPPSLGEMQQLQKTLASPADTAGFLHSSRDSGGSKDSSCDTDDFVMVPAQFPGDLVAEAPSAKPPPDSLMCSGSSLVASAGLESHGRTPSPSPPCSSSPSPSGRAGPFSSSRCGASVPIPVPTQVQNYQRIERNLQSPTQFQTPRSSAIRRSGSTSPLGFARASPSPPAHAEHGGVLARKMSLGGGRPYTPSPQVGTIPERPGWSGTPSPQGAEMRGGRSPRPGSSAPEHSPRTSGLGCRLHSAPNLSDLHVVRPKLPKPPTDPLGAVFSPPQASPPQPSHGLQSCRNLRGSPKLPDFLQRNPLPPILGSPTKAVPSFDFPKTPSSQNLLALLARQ

Target: Recombinant human ULK1 (1-649) (Homo sapiens (Human), UniProt O75385)
Assay: ULK1 ADP Glo kinase activity assay (MBP substrate)
Conditions: read-out: ULK1 biochemical IC50, 25° C., 40 minutes
Procedure: Recombinant human ULK1 (1-649) protein expressed in Sf9 insect cells was obtained from SignalChem (Vancouver, BC), catalog #U01-11G. Active kinase was purified via N-terminal GST tag to >85% purity.
ADP GLO Kinase Assay Reagents were obtained from Promega Corp (Madison, WI), catalog #V9104.
MBP (myelin basic protein) substrate, bovine, purified, was obtained from Sigma (St. Louis, MO), catalog #M1891.
ULK1 inhibitor potency was determined using the luminescent ADP Glo Kinase Assay (Promega), a universal ADP detection system that measures kinase activity by quantifying the amount of ADP produced during a kinase reaction. ULK1 kinase reactions are performed in a standard 96-well microplate (20 uL reaction volume) at 25° C. for 40 minutes in the presence or absence of the test compound (12-point dilution series starting at 10 uM). […]
The standard ADP Glo assay is performed in two steps. […] In the second step, the Kinase Detection Reagent (10 uL) is added to simultaneously convert ADP to ATP and allow the newly synthesized ATP to be measured using a luciferase/luciferin reaction. […] Thirty minutes after the addition of the Detection reagent, light generated from the luciferase reaction is measured (1 second exposure) using a microplate compatible luminometer (CLARIOstar, BMG Labtech).
Inhibition of ULK1 kinase activity is determined for each test compound by comparison to DMSO only control wells. […]

`CN1Cc2cc(Cl)c(Nc3ncc(C(F)(F)F)c(-c4cc(S(C)(=O)=O)cs4)n3)cc2C1` was tested, and the IC50 was < 10 nM.
